Reference: PubChem BioAssay AID1259254 (NCATS, 2017)
Screen: 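Gene knock-downs that lead to re-replication, shown by excess G2 DNA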 (primary screen). Cell system: human HCT116 colorectal cancer cells. Reagents: single siRNA against human genes. Time to read-out: 3 days. Detection: 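Nuclei stained with Hoechst and imaged; cell-cycle phase assigned by DNA content; G2 share scaled per plate, non-targeting siRNA 0%, GMNN siRNA 100%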. Scale: G2 robust z-score and G2 cells, % of GMNN control: higher = more G2 cells, more excess DNA replication. Active means: 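Active siRNAs have a G2 robust z of 5 or more median absolute deviations over the median, which in these data means about 38% or higher of GMNN control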.
In all, the deposit lists about 59,000 reagents; below is a part drawn at random. Over the whole deposit, about 1,550 (2.6%) are marked active. 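G2 share is only a proxy for re-replication; each gene was hit by three separate siRNAs, and active genes were retested.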 Entries without a mark were called inactive. Reagents against one gene are numbered here. Further read-outs or replicates are left out here. No sequences are given here. Not stated in the record: the amount of reagent.

{"Gene": "KRTAP13-3", "reagent": 1, "G2 robust z-score": 0.428, "G2 cells, % of GMNN control": 5.98}
{"Gene": "KRTAP13-3", "reagent": 2, "G2 robust z-score": -0.378, "G2 cells, % of GMNN control": 0.307}
{"Gene": "KRTAP13-3", "reagent": 3, "G2 robust z-score": -0.834, "G2 cells, % of GMNN control": -2.9}
{"Gene": "PTPRJ", "reagent": 1, "G2 robust z-score": -1, "G2 cells, % of GMNN control": -4.08}
{"Gene": "PTPRJ", "reagent": 2, "G2 robust z-score": -0.908, "G2 cells, % of GMNN control": -3.42}
{"Gene": "PTPRJ", "reagent": 3, "G2 robust z-score": 2.37, "G2 cells, % of GMNN control": 19.6}
{"Gene": "ADCY6", "reagent": 1, "G2 robust z-score": 3.36, "G2 cells, % of GMNN control": 26.6}
{"Gene": "ADCY6", "reagent": 2, "G2 robust z-score": -0.426, "G2 cells, % of GMNN control": -0.0305}
{"Gene": "ADCY6", "reagent": 3, "G2 robust z-score": -0.186, "G2 cells, % of GMNN control": 1.66}
{"Gene": "TBC1D22A-AS1", "reagent": 1, "G2 robust z-score": 0.35, "G2 cells, % of GMNN control": 5.43}
{"Gene": "TBC1D22A-AS1", "reagent": 2, "G2 robust z-score": -0.283, "G2 cells, % of GMNN control": 0.977}
{"Gene": "TBC1D22A-AS1", "reagent": 3, "G2 robust z-score": 0.932, "G2 cells, % of GMNN control": 9.53}
{"Gene": "CNPPD1", "reagent": 1, "G2 robust z-score": -0.708, "G2 cells, % of GMNN control": -2.01}
{"Gene": "CNPPD1", "reagent": 2, "G2 robust z-score": -0.67, "G2 cells, % of GMNN control": -1.75}
{"Gene": "CNPPD1", "reagent": 3, "G2 robust z-score": -0.773, "G2 cells, % of GMNN control": -2.47}
{"Gene": "ARL6IP1", "reagent": 1, "G2 robust z-score": -0.0554, "G2 cells, % of GMNN control": 2.58}
{"Gene": "ARL6IP1", "reagent": 2, "G2 robust z-score": 0.337, "G2 cells, % of GMNN control": 5.34}
{"Gene": "ARL6IP1", "reagent": 3, "G2 robust z-score": 0.118, "G2 cells, % of GMNN control": 3.8}

Ordered by “G2 robust z-score” (descending): some entries from above
{"Gene": "ARL6IP1", "reagent": 2, "G2 robust z-score": 0.337, "G2 cells, % of GMNN control": 5.34}
{"Gene": "ARL6IP1", "reagent": 3, "G2 robust z-score": 0.118, "G2 cells, % of GMNN control": 3.8}
